Measurements: the supplement of paper PMC7877785
± gives the uncertainty stated by the source. The uncertainty is large for many entries.

Assay: self-splicing fitness, log relative to wild type (ln ratio); higher = more splicing; Tetrahymena group I intron in knt gene, E. coli kanamycin selection, DiMSum; sequences stand for … in CUCUCU…GGAGGGAAAAGUUAUCAGGCAUGCACCUGGUAGCUAGUCUUUAAACCAAUAGAUUGCAUCGGUUUAAAAGGCAAGACCGUCAAAUUGCGGGAAAGGGGUCAACAGCCGUUCAGUACCAAGUCUCAGGGGAAACUUUGAGAUGGCCUUGCAAAGGGUAUGGUAAUAAGCUGACGGACAUGGUCCUAACCACGCAGCCAAGUCCUAAGUCAACAGAUCUUCUGUUGAUAUGGAUGCAGUUCACAGACUAAAUGUCGGUCGGGGAAGAUGUAUUCUUCUCAUAAGAUAUAGUCGGACCUCUCCUUAAUGGGAGCUAGCGGAUGAAGUGAUGCAACACUGGAGCCGCUGGGAACUAAUUUGUAUGCGAAAGUAUAUUGAUUAGUUUUGGAGUACUCGUGGUCG
Summary of the method: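 Six replicate transformations of E. coli BL21(DE3) with a pET-22b(+) library were grown overnight at 37°C or 30°C. The library randomised all eight P1ex-region intron nucleotides, the intron lying in the knt kanamycin-resistance gene, and plates were LB agar with or without 25 μg/mL kanamycin plus 100 μg/mL carbenicillin, 50 μM IPTG and 0.2% rhamnose. Pooled colonies were amplicon-sequenced on an Illumina HiSeq 2500, and fitness is the DiMSum error-weighted combination of wild-type-normalised replicate fold changes, kanamycin versus none.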

Row | Sequence | self-splicing fitness (ln) (37 °C) | self-splicing fitness (ln) (30 °C)
1 | AAAAAGCAAUAUUACGCUGC | -3.15 ± 0.74 | –
2 | GGAUAGCAAUAUUACGAUGC | -0.512 ± 0.63 | -2.32 ± 0.71
3 | CUGUAGCAAUAUUACGAGUC | – | -4.09 ± 0.52
4 | CCCGAGCAAUAUUACGGCCC | -2.57 ± 1.1 | -4.33 ± 0.73
5 | UGGUAGCAAUAUUACGUUGC | – | -3.12 ± 0.53
6 | GCCGAGCAAUAUUACGUCGG | -4.04 ± 0.51 | –
7 | GAUGAGCAAUAUUACGUGCU | -2.85 ± 0.53 | –
8 | AUGUAGCAAUAUUACGGGAC | -2.49 ± 0.55 | -2.87 ± 0.57
9 | AACGAGCAAUAUUACGCCAC | -2.39 ± 0.77 | –
10 | UUUUAGCAAUAUUACGAUCG | -0.679 ± 0.5 | –
11 | ACACAGCAAUAUUACGCUUC | – | -5.39 ± 0.58
12 | GGGAAGCAAUAUUACGGCCC | -2.32 ± 0.51 | -3.07 ± 0.64
13 | UGGAAGCAAUAUUACGAGGG | – | -4.54 ± 1
14 | CUCUAGCAAUAUUACGCUCC | – | -3.17 ± 1
15 | CCUUAGCAAUAUUACGCCCU | -1.36 ± 0.57 | –
16 | CCUGAGCAAUAUUACGCCUA | -2.64 ± 0.61 | –
17 | GGAGAGCAAUAUUACGCACU | -1.94 ± 0.46 | -2.77 ± 0.49
18 | UCAGAGCAAUAUUACGCCAU | – | -3.94 ± 0.51
19 | GUGUAGCAAUAUUACGAAGG | -2.6 ± 0.54 | -1.52 ± 0.87
20 | AAGUAGCAAUAUUACGACGG | -1.66 ± 0.34 | -1.74 ± 0.29
21 | UGUGAGCAAUAUUACGGCGC | -0.44 ± 1.4 | –
22 | CCGGAGCAAUAUUACGAGAC | -3.5 ± 0.52 | –
23 | AGUGAGCAAUAUUACGACGU | -0.385 ± 0.066 | -0.966 ± 0.059
24 | ACUCAGCAAUAUUACGGAGU | -2.7 ± 0.18 | -2.78 ± 0.11
25 | UGGAAGCAAUAUUACGGCAC | – | -4.13 ± 0.74

Row | Sequence | self-splicing fitness (ln) (37 °C) | self-splicing fitness (ln) (30 °C)
26 | UCGAAGCAAUAUUACGACUC | – | -4.32 ± 0.59
27 | ACGGAGCAAUAUUACGCCGC | -1.69 ± 0.62 | -3.8 ± 0.75
28 | GCGGAGCAAUAUUACGCUGU | -2.18 ± 0.77 | -3.01 ± 0.84
29 | UCAAAGCAAUAUUACGGACC | – | -4.7 ± 0.51
30 | CCCAAGCAAUAUUACGUACC | -1.82 ± 0.28 | -5.23 ± 0.58
31 | CGGUAGCAAUAUUACGAUAC | -3.63 ± 0.73 | –
32 | CUUCAGCAAUAUUACGCCUC | – | -4.79 ± 1
33 | UUAUAGCAAUAUUACGUGAU | -1.75 ± 0.81 | -4.11 ± 0.6
34 | GAUUAGCAAUAUUACGUAGU | -1.34 ± 0.12 | -3.06 ± 0.15
35 | UCAGAGCAAUAUUACGAAAC | – | -3.95 ± 0.72
36 | AGGGAGCAAUAUUACGUUAC | – | -4.25 ± 0.74
37 | GGCGAGCAAUAUUACGCUGG | -2.29 ± 0.64 | –
38 | UCUCAGCAAUAUUACGCAUG | – | -2.79 ± 1.2
39 | ACUCAGCAAUAUUACGUCUA | -0.152 ± 0.076 | -0.845 ± 0.081
40 | AGGGAGCAAUAUUACGGCUC | -1.61 ± 0.84 | –
41 | GCGUAGCAAUAUUACGCAAG | -5 ± 1 | –
42 | UGCGAGCAAUAUUACGGAGU | – | -5.1 ± 0.51
43 | CUCUAGCAAUAUUACGCCUG | -2.4 ± 0.77 | –
44 | AAUGAGCAAUAUUACGGUAC | -0.757 ± 0.63 | –
45 | CUUGAGCAAUAUUACGACAA | – | -3.09 ± 0.68
46 | GUAUAGCAAUAUUACGCUUC | -0.333 ± 0.93 | –
47 | CGAGAGCAAUAUUACGUAAU | – | -4.11 ± 0.51
48 | AUCGAGCAAUAUUACGCCCU | -1.24 ± 0.66 | –
49 | GUAUAGCAAUAUUACGCAAC | 0.246 ± 0.58 | –
50 | UUAUAGCAAUAUUACGACGC | -1.51 ± 0.63 | –

Row | Sequence | self-splicing fitness (ln) (37 °C) | self-splicing fitness (ln) (30 °C)
51 | GUUGAGCAAUAUUACGCGGA | – | -2.46 ± 0.65
52 | UGUGAGCAAUAUUACGCUCA | -2.16 ± 0.55 | -3.7 ± 1.1
53 | AAUGAGCAAUAUUACGGAGU | – | -2.31 ± 0.52
54 | UACAAGCAAUAUUACGAGAA | -2.42 ± 0.33 | -2.1 ± 0.29
55 | UAACAGCAAUAUUACGAGGC | -1.97 ± 0.18 | -3.62 ± 0.2
56 | AGGGAGCAAUAUUACGCACC | -1.2 ± 0.65 | -2.71 ± 0.65
57 | AGAGAGCAAUAUUACGAGCG | -3 ± 1 | –
58 | GCGUAGCAAUAUUACGCUCA | – | -2.52 ± 0.64
59 | UCUUAGCAAUAUUACGCAAU | – | -5.14 ± 1
60 | GCAUAGCAAUAUUACGGCAG | -3.09 ± 0.52 | -2.5 ± 0.91
61 | AUUGAGCAAUAUUACGGACC | -0.845 ± 0.92 | –
62 | GGGGAGCAAUAUUACGGAGA | -3.7 ± 0.52 | -4.57 ± 0.6
63 | UUAUAGCAAUAUUACGAGUC | -3.11 ± 0.61 | -2.93 ± 1.1
64 | GACUAGCAAUAUUACGCGUU | – | -5.26 ± 0.72
65 | UCAUAGCAAUAUUACGCAUA | – | -2.64 ± 0.51
66 | GGAAAGCAAUAUUACGCUCU | -2.15 ± 0.64 | –
67 | GGAUAGCAAUAUUACGACCC | -2.29 ± 1.1 | –
68 | CUUUAGCAAUAUUACGUUCA | -3.21 ± 1 | -3.54 ± 0.63
69 | GUGCAGCAAUAUUACGCAUG | -0.586 ± 0.16 | -3.11 ± 0.29
70 | UGAGAGCAAUAUUACGGCCU | – | -4.04 ± 1.1
71 | GUCGAGCAAUAUUACGCUGG | -3.65 ± 0.73 | -5.22 ± 0.72
72 | GGUAAGCAAUAUUACGGUCC | -0.216 ± 0.52 | –
73 | AACGAGCAAUAUUACGAAUA | -1.63 ± 0.34 | -3.52 ± 0.52
74 | UAUUAGCAAUAUUACGAACC | -1.25 ± 0.84 | –
75 | GUUAAGCAAUAUUACGACCC | – | -1.38 ± 0.66

Row | Sequence | self-splicing fitness (ln) (37 °C) | self-splicing fitness (ln) (30 °C)
76 | GGGUAGCAAUAUUACGCCGC | – | -0.388 ± 0.58
77 | UCUGAGCAAUAUUACGCCCU | – | -3.91 ± 0.75
78 | AUACAGCAAUAUUACGUGCG | -0.3 ± 0.091 | -0.886 ± 0.081
79 | GUUUAGCAAUAUUACGGAGA | – | -3.51 ± 0.6
80 | AUGGAGCAAUAUUACGCCGC | 1.1 ± 1.1 | –
81 | GUCUAGCAAUAUUACGCGGU | -1.04 ± 0.38 | -1.78 ± 0.26
82 | GAAGAGCAAUAUUACGGCCG | -0.854 ± 0.29 | -2.63 ± 0.42
83 | CAAUAGCAAUAUUACGCACC | -1.98 ± 0.51 | –
84 | GAGUAGCAAUAUUACGCUAU | -3.8 ± 0.73 | –
85 | CUGGAGCAAUAUUACGGCCA | – | -3.79 ± 0.52
86 | GGUUAGCAAUAUUACGCCAC | – | 0.425 ± 0.57
87 | CCUGAGCAAUAUUACGUAAA | – | -5.76 ± 1
88 | CCUGAGCAAUAUUACGGCCG | – | -2.47 ± 0.66
89 | AAAGAGCAAUAUUACGAACC | – | -2.36 ± 0.59
90 | CCAUAGCAAUAUUACGCAAC | -3.2 ± 0.52 | –
91 | AAAGAGCAAUAUUACGAGCU | – | -3.99 ± 0.6
92 | GAGGAGCAAUAUUACGCUCU | -1.73 ± 0.47 | -2.18 ± 0.42
93 | GUCUAGCAAUAUUACGCUGC | – | -5.11 ± 0.58
94 | CAAUAGCAAUAUUACGGCCC | -1.74 ± 0.59 | -3.42 ± 0.73
95 | UCCGAGCAAUAUUACGAGGC | -1.7 ± 0.39 | -3.1 ± 0.36
96 | GGAUAGCAAUAUUACGGAAA | -3.06 ± 0.61 | -3.2 ± 0.52
97 | GUGUAGCAAUAUUACGCAGC | -2.62 ± 0.55 | –
98 | CUCGAGCAAUAUUACGAGAC | -2.6 ± 0.54 | -3.75 ± 0.73
99 | GCUCAGCAAUAUUACGCCGC | -2.3 ± 0.78 | –
100 | GUCUAGCAAUAUUACGGACU | -2.62 ± 0.63 | -3.7 ± 0.52

Row | Sequence | self-splicing fitness (ln) (37 °C) | self-splicing fitness (ln) (30 °C)
101 | AGCGAGCAAUAUUACGGUAC | – | -3.58 ± 0.36
102 | GUUGAGCAAUAUUACGUCUG | -2.04 ± 0.4 | -2.34 ± 0.44
103 | GCGGAGCAAUAUUACGUAUC | -2.07 ± 0.67 | –
104 | AACAAGCAAUAUUACGGGAA | -1.86 ± 0.13 | -1.57 ± 0.097
105 | UUAUAGCAAUAUUACGUCUU | -0.948 ± 0.17 | -3.35 ± 0.3
106 | GGGUAGCAAUAUUACGUGCC | -1.39 ± 1.2 | –
107 | CGGAAGCAAUAUUACGCAAC | -2.63 ± 0.61 | –
108 | GGCGAGCAAUAUUACGUACC | -1.13 ± 0.52 | –
109 | GGUUAGCAAUAUUACGAGGC | -3.73 ± 0.73 | -3.39 ± 1
110 | UCCUAGCAAUAUUACGGUGU | -0.222 ± 0.097 | -1.71 ± 0.067
111 | GUAUAGCAAUAUUACGGCGG | – | -3.01 ± 0.62
112 | UAUGAGCAAUAUUACGAAGC | -1.13 ± 1.2 | –
113 | GGGUAGCAAUAUUACGUGUA | -0.897 ± 0.14 | -0.214 ± 0.12
114 | CAUAAGCAAUAUUACGGAUC | – | -4.38 ± 0.59
115 | CGUCAGCAAUAUUACGGUUU | -1.97 ± 0.097 | -2.39 ± 0.098
116 | GCCCAGCAAUAUUACGGCAG | -3.18 ± 0.53 | -3.12 ± 1.1
117 | CUCUAGCAAUAUUACGGACU | – | -2.33 ± 0.78
118 | GUUGAGCAAUAUUACGUAGA | – | -4.51 ± 0.72
119 | UGAUAGCAAUAUUACGGUUC | – | -4.44 ± 0.51
120 | UAAGAGCAAUAUUACGAACU | -0.778 ± 0.82 | –
121 | AAAGAGCAAUAUUACGUUGG | -2.4 ± 0.25 | -3.59 ± 0.22

Pulled one by one from the list above, 2 records:
Row | Sequence | self-splicing fitness (ln) (37 °C) | self-splicing fitness (ln) (30 °C)
33 | UUAUAGCAAUAUUACGUGAU | -1.75 ± 0.81 | -4.11 ± 0.6
43 | CUCUAGCAAUAUUACGCCUG | -2.4 ± 0.77 | –

Looked up above.
CCUUAGCAAUAUUACGCCCU | self-splicing fitness (ln) (37 °C): -1.36 ± 0.57
UCCUAGCAAUAUUACGGUGU | self-splicing fitness (ln) (30 °C): -1.71 ± 0.067
UAACAGCAAUAUUACGAGGC | self-splicing fitness (ln) (37 °C): -1.97 ± 0.18
CCUGAGCAAUAUUACGCCUA | self-splicing fitness (ln) (37 °C): -2.64 ± 0.61
GUAUAGCAAUAUUACGCAAC | self-splicing fitness (ln) (37 °C): 0.246 ± 0.58
